Experimental data as given in PubChem BioAssay (EPA / NIEHS).
Inconclusive results, whose numbers are uncertain, are shown with a selection of clear calls. For some assays here: Potencies beside an inconclusive call are fits to weak or partial responses and may not hold up. Active and inactive are the calls of the source. Rule for the calls: active = hit-call score of the fitted dose curve at least 0.9, where 1 is the maximum; inconclusive = response in the unintended direction; inactive = score below 0.9.

By UniProt entry, the sequences of proteins in these tests, tags left out. Where a name states a change or a piece, a line headed by the entry shows the natural chain unless it says otherwise.
UniProt P05979, whole entry, looked up: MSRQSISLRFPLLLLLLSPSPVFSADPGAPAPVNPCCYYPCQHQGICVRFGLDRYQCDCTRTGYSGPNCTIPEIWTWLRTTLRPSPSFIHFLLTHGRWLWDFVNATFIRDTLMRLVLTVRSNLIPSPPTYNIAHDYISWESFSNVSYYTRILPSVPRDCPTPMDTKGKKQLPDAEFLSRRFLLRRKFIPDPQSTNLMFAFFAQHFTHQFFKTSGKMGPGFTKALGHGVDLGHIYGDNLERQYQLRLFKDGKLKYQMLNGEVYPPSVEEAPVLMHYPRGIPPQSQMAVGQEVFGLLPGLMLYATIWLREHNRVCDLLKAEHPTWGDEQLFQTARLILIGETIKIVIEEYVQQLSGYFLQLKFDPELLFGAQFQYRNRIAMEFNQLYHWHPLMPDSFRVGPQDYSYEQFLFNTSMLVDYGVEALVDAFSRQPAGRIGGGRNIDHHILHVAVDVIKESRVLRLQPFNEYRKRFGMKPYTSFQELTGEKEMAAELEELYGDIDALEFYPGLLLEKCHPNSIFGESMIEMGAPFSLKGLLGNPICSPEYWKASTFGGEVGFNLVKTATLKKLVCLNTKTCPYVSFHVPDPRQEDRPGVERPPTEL
UniProt P29476, whole entry, looked up: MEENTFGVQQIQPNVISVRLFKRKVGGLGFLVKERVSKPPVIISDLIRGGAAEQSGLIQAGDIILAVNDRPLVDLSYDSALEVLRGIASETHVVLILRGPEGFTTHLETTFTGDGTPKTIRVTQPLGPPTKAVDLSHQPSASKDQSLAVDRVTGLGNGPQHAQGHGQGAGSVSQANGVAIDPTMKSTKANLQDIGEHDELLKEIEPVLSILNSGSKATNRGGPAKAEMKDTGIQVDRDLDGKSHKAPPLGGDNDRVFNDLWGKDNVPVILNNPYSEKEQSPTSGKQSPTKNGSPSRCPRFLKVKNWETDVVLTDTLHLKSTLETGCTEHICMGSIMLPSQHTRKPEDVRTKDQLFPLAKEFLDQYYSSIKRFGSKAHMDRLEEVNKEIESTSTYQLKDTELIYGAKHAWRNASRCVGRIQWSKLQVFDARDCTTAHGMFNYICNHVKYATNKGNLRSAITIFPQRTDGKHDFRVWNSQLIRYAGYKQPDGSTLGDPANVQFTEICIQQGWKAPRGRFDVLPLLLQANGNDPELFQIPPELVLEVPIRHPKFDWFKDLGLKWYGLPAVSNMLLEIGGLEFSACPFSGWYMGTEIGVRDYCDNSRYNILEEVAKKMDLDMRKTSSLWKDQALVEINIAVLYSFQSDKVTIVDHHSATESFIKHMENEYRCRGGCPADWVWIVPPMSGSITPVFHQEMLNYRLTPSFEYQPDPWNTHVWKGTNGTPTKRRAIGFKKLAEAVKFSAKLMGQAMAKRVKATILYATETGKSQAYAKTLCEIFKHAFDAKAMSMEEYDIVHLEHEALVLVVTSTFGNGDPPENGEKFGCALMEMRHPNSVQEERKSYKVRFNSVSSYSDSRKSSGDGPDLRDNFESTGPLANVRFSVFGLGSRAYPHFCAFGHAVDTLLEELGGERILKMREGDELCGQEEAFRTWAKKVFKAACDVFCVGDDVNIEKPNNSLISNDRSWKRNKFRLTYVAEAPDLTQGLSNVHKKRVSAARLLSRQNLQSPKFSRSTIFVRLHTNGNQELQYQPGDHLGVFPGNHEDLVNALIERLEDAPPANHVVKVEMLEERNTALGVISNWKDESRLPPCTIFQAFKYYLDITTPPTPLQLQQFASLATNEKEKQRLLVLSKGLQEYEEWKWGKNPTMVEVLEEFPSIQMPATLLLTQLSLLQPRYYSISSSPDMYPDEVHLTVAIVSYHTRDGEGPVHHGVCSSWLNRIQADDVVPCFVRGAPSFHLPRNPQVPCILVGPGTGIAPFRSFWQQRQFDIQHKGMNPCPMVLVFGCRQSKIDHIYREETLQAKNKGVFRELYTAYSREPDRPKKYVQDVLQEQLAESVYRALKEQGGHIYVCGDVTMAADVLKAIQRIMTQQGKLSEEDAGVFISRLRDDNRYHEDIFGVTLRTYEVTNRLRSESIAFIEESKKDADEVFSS
UniProt P28190, whole entry, looked up: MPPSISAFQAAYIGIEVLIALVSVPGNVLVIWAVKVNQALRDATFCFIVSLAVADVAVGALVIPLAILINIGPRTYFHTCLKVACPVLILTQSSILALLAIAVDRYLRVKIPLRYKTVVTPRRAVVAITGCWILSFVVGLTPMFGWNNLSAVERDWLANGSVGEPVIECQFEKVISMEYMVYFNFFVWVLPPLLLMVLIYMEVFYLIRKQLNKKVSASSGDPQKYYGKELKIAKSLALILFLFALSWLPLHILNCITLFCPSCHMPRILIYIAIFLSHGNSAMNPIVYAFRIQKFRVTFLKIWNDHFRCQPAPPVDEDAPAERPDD
UniProt P22734: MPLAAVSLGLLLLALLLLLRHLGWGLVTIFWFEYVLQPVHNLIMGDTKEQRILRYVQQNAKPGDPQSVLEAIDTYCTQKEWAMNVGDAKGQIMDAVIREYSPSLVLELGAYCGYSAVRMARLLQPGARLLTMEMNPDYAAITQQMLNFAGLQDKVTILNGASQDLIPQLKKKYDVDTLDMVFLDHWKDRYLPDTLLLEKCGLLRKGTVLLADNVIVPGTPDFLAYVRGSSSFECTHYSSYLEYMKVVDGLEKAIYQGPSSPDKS
UniProt P47898, whole entry, looked up: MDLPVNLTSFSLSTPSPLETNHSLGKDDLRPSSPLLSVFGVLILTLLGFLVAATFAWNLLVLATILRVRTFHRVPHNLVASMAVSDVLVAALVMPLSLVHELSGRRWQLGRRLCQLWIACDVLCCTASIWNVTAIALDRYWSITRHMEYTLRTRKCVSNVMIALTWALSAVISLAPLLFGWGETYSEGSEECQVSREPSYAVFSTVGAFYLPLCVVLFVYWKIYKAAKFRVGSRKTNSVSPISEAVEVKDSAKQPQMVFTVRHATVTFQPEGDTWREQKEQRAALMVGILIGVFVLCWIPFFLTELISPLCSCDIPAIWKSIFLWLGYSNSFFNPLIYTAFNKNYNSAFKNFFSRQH
UniProt Q2NNR5: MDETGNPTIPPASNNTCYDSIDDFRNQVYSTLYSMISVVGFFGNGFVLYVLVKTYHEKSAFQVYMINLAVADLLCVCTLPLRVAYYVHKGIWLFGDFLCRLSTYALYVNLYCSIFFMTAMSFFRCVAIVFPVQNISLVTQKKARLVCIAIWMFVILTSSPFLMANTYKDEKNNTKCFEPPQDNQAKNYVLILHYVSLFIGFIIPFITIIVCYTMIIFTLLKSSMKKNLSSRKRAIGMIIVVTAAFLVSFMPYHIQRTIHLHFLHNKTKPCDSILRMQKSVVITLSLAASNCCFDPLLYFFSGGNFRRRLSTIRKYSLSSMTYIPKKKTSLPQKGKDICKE
UniProt Q95136, whole entry, looked up: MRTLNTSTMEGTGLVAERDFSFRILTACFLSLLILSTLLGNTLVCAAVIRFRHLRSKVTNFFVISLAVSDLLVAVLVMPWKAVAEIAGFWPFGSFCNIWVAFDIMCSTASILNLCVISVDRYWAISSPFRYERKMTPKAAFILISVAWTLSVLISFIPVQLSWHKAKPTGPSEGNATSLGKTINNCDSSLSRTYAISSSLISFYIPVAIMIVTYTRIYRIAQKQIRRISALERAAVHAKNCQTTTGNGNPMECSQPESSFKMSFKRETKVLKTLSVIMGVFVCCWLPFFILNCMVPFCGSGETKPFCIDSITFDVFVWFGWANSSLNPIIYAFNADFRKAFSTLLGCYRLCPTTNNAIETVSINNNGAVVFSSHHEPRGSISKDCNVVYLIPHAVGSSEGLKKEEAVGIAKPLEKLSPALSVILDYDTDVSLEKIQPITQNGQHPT
UniProt P28223, whole entry, looked up: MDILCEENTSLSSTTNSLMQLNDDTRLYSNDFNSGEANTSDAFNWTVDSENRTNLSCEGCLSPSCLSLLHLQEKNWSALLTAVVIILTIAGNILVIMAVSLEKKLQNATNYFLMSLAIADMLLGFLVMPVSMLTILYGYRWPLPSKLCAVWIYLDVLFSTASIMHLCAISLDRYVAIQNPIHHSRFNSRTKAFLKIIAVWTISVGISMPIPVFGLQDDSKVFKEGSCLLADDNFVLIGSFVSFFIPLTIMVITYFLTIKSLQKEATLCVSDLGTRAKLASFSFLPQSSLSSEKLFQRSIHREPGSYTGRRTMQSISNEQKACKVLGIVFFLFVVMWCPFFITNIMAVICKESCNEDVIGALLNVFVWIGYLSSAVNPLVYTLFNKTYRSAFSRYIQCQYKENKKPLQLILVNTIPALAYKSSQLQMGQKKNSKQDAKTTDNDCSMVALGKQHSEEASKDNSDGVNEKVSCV

Experiments:
[1] = target: sheep Cyclooxygenase-1 (Cox1), PTGS1 (gene 443551) (UniProt P05979); test: NVS_ENZ_oCOX1: NovaScreen (NVS) Enzymatic Assay for sheep Cyclooxygenase-1 (Cox1) (AID 2283239);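 note: actives reduce cyclooxygenase activity so potencies are for inhibitors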
How it was run: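 COX1 from ovine seminal vesicles, activity read colorimetrically about 0.66 h after dosing. Primary screen in duplicate at 25 uM; actives retested in concentration series; loss of signal fitted versus DMSO.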

[2] = target: rat Constitutive Nitric Oxide Synthase (CNOS), Nos1 (gene 24598) (UniProt P29476); test: NVS_ENZ_rCNOS: NovaScreen (NVS) Enzymatic Assay for rat Constitutive Nitric Oxide Synthase (CNOS) (AID 2283236)
How it was run: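 Enzyme activity in rat brain membrane preparation, read 1 h after dosing by filter-based radiometric scintillation counting. Primary screen in duplicate at 25 uM; actives (e.g., ≥30% inhibition) then run in concentration-response up to 50 uM.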

[3] = target: Adenosine receptor A1 (Bos taurus) (UniProt P28190); test: NVS_GPCR_bAdoR_NonSelective: NovaScreen (NVS) G Protein-Coupled Receptor Assay for bovine Adenosine Receptor (AdoR), Non-selective Binding (AID 2283244)
How it was run: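 Bovine striatal membranes, radioligand displacement binding, 1 h after dosing, filter-based scintillation counting. Screened in duplicate at 25 uM, then concentration-response up to 50 uM; loss of specific binding relative to DMSO.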

[4] = target: rat Catechol-O-Methyl Transferase (COMT), Comt (gene 24267) (UniProt P22734); test: NVS_ENZ_rCOMT: NovaScreen (NVS) Enzymatic Assay for rat Catechol-O-Methyl Transferase (COMT) (AID 2283235)
How it was run: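 Cell-free enzyme activity with protein extracted from rat dorsal striatum, measured by HPLC with absorbance detection. Compounds screened at 25 uM in duplicate; actives then run in concentration-response up to 50 uM, loss of signal versus DMSO.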

[5] = tested on: guinea pig Leukotriene B4 Receptor (LTB4), gene 100379538; test: NVS_GPCR_gLTB4: NovaScreen (NVS) G Protein-Coupled Receptor Assay for guinea pig Leukotriene B4 Receptor (LTB4) (AID 2283247)
How it was run: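 Radioligand displacement on guinea pig spleen membranes, filter-based scintillation counting 2 h after dosing. Primary duplicate single point at 25 uM; hits over threshold (e.g. 30% inhibition) run in concentration-response up to 50 uM, DMSO baseline.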

[6] = target: human Serotonin, 5-Hydroxytryptamine Receptor 5A (5HT5A), HTR5A (gene 3361) (UniProt P47898); test: NVS_GPCR_h5HT5A: NovaScreen (NVS) G Protein-Coupled Receptor Assay for human Serotonin, 5-Hydroxytryptamine Receptor 5A (5HT5A) (AID 2283251)
How it was run: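 Cell-free radioligand displacement binding on HEK293-derived membrane protein, 1 h incubation, filter-based scintillation counting. Primary screen in duplicate at 25 uM, actives followed in concentration series; loss of signal fitted versus DMSO.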

[7] = target: guinea pig Leukotriene D4 Receptor (LTD4), CYSLTR1 (gene 100135514) (UniProt Q2NNR5); test: NVS_GPCR_gLTD4: NovaScreen (NVS) G Protein-Coupled Receptor Assay for guinea pig Leukotriene D4 Receptor (LTD4) (AID 2283248)
How it was run: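 Radioligand displacement on guinea pig lung membranes, 1 h incubation, filtration and scintillation counting; DMSO as negative control. Duplicate 25 uM primary screen, then singleton concentration-response up to 50 uM.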

[8] = tested on: guinea pig Muscarinic, Peripheral (Mperiperal) Receptor, Non-selective Binding, gene 100379235; test: NVS_GPCR_gMPeripheral_NonSelective: NovaScreen (NVS) G Protein-Coupled Receptor Assay for guinea pig Muscarinic, Peripheral (Mperiperal) Receptor, Non-selective Binding (AID 2283250)
How it was run: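 Guinea pig bladder membranes, radioligand binding read 1 h after dosing by filter scintillation counting; loss of signal vs DMSO. Primary duplicate screen at 25 uM, then concentration-response up to 50 uM.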

[9] = tested on: bovine Angiotensin II Receptor Type 2 (AT2), gene 407157; test: NVS_GPCR_bAT2: NovaScreen (NVS) G Protein-Coupled Receptor Assay for bovine Angiotensin II Receptor Type 2 (AT2) (AID 2283240)
How it was run: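 Radioligand displacement on bovine cerebellar membranes, 1 hour incubation, filter-based scintillation counting; loss of signal vs DMSO. Duplicate single-point screen at 25 uM, then concentration-response to 50 uM maximum.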

[10] = target: bovine Dopamine Receptor (DR), Non-selective Binding, DRD1 (gene 281125) (UniProt Q95136); test: NVS_GPCR_bDR_NonSelective: NovaScreen (NVS) G Protein-Coupled Receptor Assay for bovine Dopamine Receptor (DR), Non-selective Binding (AID 2283241)
How it was run: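 Bovine striatal membranes; radioligand displacement read by filtration and scintillation counting 1 h after dosing, loss of signal vs DMSO. Screened in duplicate at 25 uM, then concentration-response for hits.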

[11] = NVS_GPCR_bNPY_NonSelective: NovaScreen (NVS) G Protein-Coupled Receptor Assay for bovine Neuropeptide Y (NPY) Receptor, Non-selective Binding (AID 2283245)
How it was run: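 Bovine hippocampal membranes incubated 1 hour with radioligand and test chemical. Bound ligand measured by filter-based scintillation counting. Single-concentration screen at 25 uM in duplicate, then concentration-response up to 50 uM.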

[12] = target: human Serotonin, 5-Hydroxytryptamine Receptor 2A (5HT2A), HTR2A (gene 3356) (UniProt P28223); test: NVS_GPCR_h5HT2A: NovaScreen (NVS) G Protein-Coupled Receptor Assay for human Serotonin, 5-Hydroxytryptamine Receptor 2A (5HT2A) (AID 2283249)
How it was run: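 Human cortex membranes, cell-free radioligand binding; filter-based scintillation read 1.5 h after dosing. Duplicate screen at 25 uM first; displacement of specific binding (loss of signal) versus DMSO.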

In the case of `CCCCC/C=C/C=C/C=O`, the AC50 [1] is reported as inconclusive: 25 µM.
With `N#CC1(N)CCCCC1` the AC50 [1] was inconclusive: 0.0145 µM.
For `CC(C)c1ccc(C(=O)N=C(N)N)cc1S(C)(=O)=O`, the outcome [2] was “inactive”.
In the case of `CC1(C)C(=O)N(Br)C(=O)N1Br`, the AC50 [2] is reported as active: 12.2 µM.
For `Nc1nc2ncc(CNc3ccc(C(=O)N[C@@H](CCC(=O)O)C(=O)O)cc3)nc2c(=O)[nH]1`, the AC50 [1] was active: 11 µM.
With `C#CC(O)C(CC)CCCC` (configuration not stated) the outcome [1] was “inactive”.
With `CCc1ccc(CCOc2ccc(CC3SC(=O)NC3=O)cc2)nc1` (configuration not stated) the AC50 [2] was active: 4.25 µM.
For `CCCCCCc1ccc(O)cc1O`, the AC50 [1] was active: 5.25 µM.
For `NC(N)=O`, the AC50 [2] was inconclusive: 25 µM and the AC50 [3] was inconclusive: 25 µM.
With `O=C(OC[C@H]1O[C@@H](OC(=O)c2cc(O)c(O)c(OC(=O)c3cc(O)c(O)c(O)c3)c2)[C@H](OC(=O)c2cc(O)c(O)c(OC(=O)c3cc(O)c(O)c(O)c3)c2)[C@@H](OC(=O)c2cc(O)c(O)c(OC(=O)c3cc(O)c(O)c(O)c3)c2)[C@@H]1OC(=O)c1cc(O)c(O)c(OC(=O)c2cc(O)c(O)c(O)c2)c1)c1cc(O)c(O)c(OC(=O)c2cc(O)c(O)c(O)c2)c1` the AC50 [4] was active: 0.371 µM and the AC50 [1] was active: 4.31 µM.
For `Cc1c(O)cccc1O`, the AC50 [1] was active: 5.06 µM.
For `Cc1ccc2oc(CN(Cc3ccccc3)C(=O)Nc3c(F)cc(F)cc3F)c(-c3ccc(Cl)cc3)c2c1`, the AC50 [4] was inconclusive: 0.405 µM and the AC50 [5] was inconclusive: 0.677 µM.
For `Nc1ccccc1N`, the outcome [1] was “inactive”, the AC50 [3] was active: 9.16 µM and the AC50 [6] was inconclusive: 25 µM.
In the case of `COc1ccc(C(=O)/C(Br)=C\C(=O)O)cc1`, the AC50 [1] is reported as active: 25 µM and the AC50 [7] is reported as inconclusive: 0.0632 µM.
For `Cc1ccc(C)c(O)c1`, the AC50 [2] was inconclusive: 47.5 µM.
In the case of `CCC(C)=NO`, the AC50 [1] is reported as inconclusive: 25 µM.
In the case of `O=C=NC1CCC(CC2CCC(N=C=O)CC2)CC1` (configuration not stated), the AC50 [1] is reported as inconclusive: 25 µM.
For `CC(C)(CO)COC(=O)C(C)(C)CO`, the AC50 [1] was inconclusive: 25 µM.
With `Cn1cnc2c1c(=O)[nH]c(=O)n2C` the outcome [1] was “inactive” and the AC50 [8] was inconclusive: 10.5 µM.
With `C=C(C)C(=O)OCCCCCCCCCCCC` the AC50 [1] was inconclusive: 25 µM.
With `COc1cc(C(=O)NC2CCN(C)CC2)ccc1Nc1ncc2c(n1)N(C1CCCC1)CC(F)(F)C(=O)N2C` the AC50 [4] was inconclusive: 5.77 µM and the AC50 [9] was active: 14 µM.
For `Sc1nc2ccccc2s1`, the AC50 [1] was inconclusive: 25 µM.
In the case of `C=C(C)C(=O)OCC1CCCO1` (configuration not stated), the AC50 [1] is reported as inconclusive: 0.0396 µM.
For `CC(C)(N=C=O)c1cccc(C(C)(C)N=C=O)c1`, the AC50 [1] was inconclusive: 25 µM.
For `O=C1OC(=O)c2c(Br)c(Br)c(Br)c(Br)c21`, the AC50 [1] was inconclusive: 2.44 µM.
With `CCOC(=O)[C@@H](C)Oc1ccc(Oc2nc3ccc(Cl)cc3o2)cc1` the outcome [1] was “inactive”.
In the case of `CCc1occc(=O)c1O`, the AC50 [1] is reported as active: 0.243 µM.
With `CC=Cc1ccc(O)c(OC)c1` the outcome [1] was “inactive” and the AC50 [8] was inconclusive: 6.21 µM.
For `CCCCCCCCCC/C=C/C1CC(=O)OC1=O` (configuration not stated), the AC50 [1] was inconclusive: 25 µM.
With `CCn1nc(C)c2c1C(=O)NCC(c1ccc(O)cc1)=N2` the AC50 [2] was inconclusive: 25 µM, the AC50 [10] was inconclusive: 0.0518 µM and the AC50 [11] was inconclusive: 4.16 µM. For the same compound, the outcome [12] was “inactive”.
With `COC(OC)(C(=O)c1ccccc1)c1ccccc1` the outcome [1] was “inactive”.
For `N#[N+]c1ccc2c(S(=O)(=O)[O-])cccc2c1O`, the AC50 [1] was active: 5.62 µM.
With `CCCCCCCCCCCCCCCC(=O)OC/C=C(C)/C=C/C=C(C)/C=C/C1=C(C)CCCC1(C)C` the AC50 [1] was active: 42.8 µM.
In the case of `COc1cc(-c2nc(NC(=O)c3cc4cc(C)cc(C)c4n3CC(=O)O)sc2CCC2CCCCC2)c(OC)cc1Cl`, the AC50 [1] is reported as active: 4 µM.
In the case of `Oc1cccc2ccccc12`, the AC50 [1] is reported as inconclusive: 25 µM.
